# In all, about 360,000 compounds went through this assay and about 7,500 (2.1%) were called active. Inconclusive results, whose numbers are uncertain, are shown with a selection of clear calls. Calls follow the shape of the dose curve; as a rule, active = well fitted inhibition curve with a large enough effect; inconclusive = small, poorly fitted or top-dose-only effect, or effect the other way; inactive = flat fitted curve, though single readings scatter. A potency beside an inconclusive call is a rough fit, not a confirmed value.
# Experiment: Nrf2 qHTS screen for inhibitors; also: nearly all actives have a fitted effect of over 60% in size
# Settings: A549 ARE-Fluc reporter, luciferase luminescence, 18-24 h; series mostly up to 46 µM
# In short: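 In this cell-based qHTS, ARE-driven firefly luciferase in A549 cells reports Nrf2 activity; the luminescent signal after BugLite lysis is the measured value, with a prior CellTiter-Fluor read for cell health.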
# Potency is read from the fitted curve at half-maximal effect.
row,Compound,Potency
1,O=C(NC1CCCCC1)C(c1ccccn1)N(C(=O)c1csnn1)C1CC1 (stereo unspecified),"inconclusive: 32.6 µM [activator, partial curve, poor fit]"
2,COc1cc(C(=O)Nc2ccc3[nH]c(=O)sc3c2)cc(OC)c1OC,inactive
3,CCOC(=O)N1CCN(C(=O)CSc2cc(C)nc3c(-c4ccccc4OC)c(C)nn23)CC1,"inconclusive: 29.1 µM [falling, single point]"
4,O=C1C(=O)N(c2nccs2)C(c2ccccc2F)/C1=C(\O)c1ccc2c(c1)OCCO2 (stereo unspecified),"inconclusive: 13 µM [falling, partial curve]"
5,Fc1ccc(C2c3cccn3CCN2C(=S)Nc2cccc(Br)c2)cc1 (stereo unspecified),"inconclusive: 23.1 µM [falling, single point]"
6,COc1cccc(NC(=O)Cn2c(=O)n(-c3ccc(Cl)cc3)c(=O)c3oc4ccccc4c32)c1,"inconclusive: 18.4 µM [activator, single point]"
7,COc1ccc(C2CC(=O)N(Cc3ccc(F)cc3)c3ccccc3S2)cc1 (stereo unspecified),"inconclusive: 18.4 µM [falling, partial curve, poor fit]"
8,CC(=O)NNC(=S)NC(=O)c1ccc(C)cc1,"inconclusive: 4.11 µM [activator, full curve, poor fit]"
9,S=C(c1ccc(-c2ccc(Cl)cc2Cl)o1)N1CCCCC1,"inconclusive: 4.11 µM [activator, partial curve]"
10,CSCCC(NC(=O)c1ccccc1Cl)C(=O)NNC(=O)c1ccccc1O (stereo unspecified),"inconclusive: 0.103 µM [falling, full curve, poor fit]"
11,Cc1ccc(Cl)cc1NS(=O)(=O)Cc1ccccc1,inactive
12,COc1ccc(C(=O)CSc2nc(-c3ccccn3)nc(C)c2Cl)cc1,"inconclusive: 25.9 µM [falling, partial curve, poor fit]"
13,COc1cccc(C(=O)NCC(=O)OCc2cc(=O)n3c(C)csc3n2)c1,"inconclusive: 16.4 µM [activator, partial curve]"
14,COc1ccc(NC(=O)C2CCCNC2)cc1OCC(C)C (stereo unspecified),"inconclusive: 6.51 µM [activator, single point]"
15,O=C(O)c1cc(N/N=C/c2ccc(-c3ccccc3)cc2)ccc1Cl,"inconclusive: 6.51 µM [activator, partial curve]"
16,O=C(c1ccc2c(=O)n(-c3ccccc3)c(=O)[nH]c2c1)N1CCCCC1,"inconclusive: 16.4 µM [falling, partial curve, poor fit]"
17,N/C(=N\OC(=O)COc1ccc(Cl)cc1Cl)c1cccnc1,"inconclusive: 4.11 µM [activator, partial curve, poor fit]"
18,COc1cc2nc(/C=C/c3cc(OC)c(OC)c(OC)c3)sc2cc1SC,"inconclusive: 16.4 µM [falling, single point]"
19,Cc1ccc(S(=O)(=O)C2(C(=O)NCc3ccccc3Cl)CC2)cc1,"inconclusive: 29.1 µM [falling, single point]"
20,COc1ccc(NC(=O)NC2(C(=O)N3CCN(C)CC3)CCCCC2)cc1,"inconclusive: 18.4 µM [activator, single point]"
21,COc1cccc(C2c3c(ncn(-c4ccccc4C)c3=N)Oc3ccc4ccccc4c32)c1 (stereo unspecified),inactive

row,Compound,Potency
1,CN1C(=O)N(CC(=O)N2CCN(S(=O)(=O)Cc3ccccc3)CC2)C(=O)C12CCCCC2,"inconclusive: 32.6 µM [falling, single point]"
2,Cn1c(C(=O)NCc2ccccc2F)cc2oc3ccccc3c21,"inconclusive: 2.91 µM [activator, full curve]"
3,O=C(CSc1ncc(-c2ccccc2)n1-c1ccccc1)NCc1ccco1,"inconclusive: 13 µM [falling, partial curve, poor fit]"
4,CCOc1cc(CNCCSc2nnnn2C)cc(Br)c1OCc1ccccc1,"inconclusive: 23.1 µM [falling, single point]"
5,CC(C)=CCc1ccc(O)c(=O)cc1C(C)C,"inconclusive: 4.61 µM [falling, full curve]"
6,Cc1cc(C)nc(/N=C(\N)Nc2ccc(CC(=O)OC(C)C)cc2)n1,"inconclusive: 13 µM [falling, partial curve]"
7,Cc1ccc2cc(C(c3nnnn3CC3CCCO3)N3CCCC4(CCCCC4)C3)c(=O)[nH]c2c1 (stereo unspecified),"inconclusive: 29.1 µM [falling, single point]"
8,N/C(=N\N=C\c1cccc([N+](=O)[O-])c1)c1nonc1N,"inconclusive: 18.4 µM [activator, single point]"
9,CC(=O)N1N=C(c2ccncc2)CC1c1ccccc1O (stereo unspecified),"inconclusive: 2.91 µM [falling, partial curve]"
10,O=[N+]([O-])c1cc(Cl)cc2c1nc(NCCO)c1ccccc12,active: 1.3 µM
11,COc1cccc(/C=N/NC(=O)c2cccc([N+](=O)[O-])c2)c1OS(=O)(=O)c1ccc(C)cc1,"inconclusive: 23.1 µM [falling, partial curve, poor fit]"
12,O=C(Nc1ccc(F)cc1)N1CCC(c2nc3c(nnn3Cc3cccc(Cl)c3)c(=O)[nH]2)CC1,active: 20.6 µM
13,O=C(C=Cc1ccccc1)c1ccc([N+](=O)[O-])cc1,"inconclusive: 29.1 µM [activator, single point]"
14,COc1cc(OC)cc(C(=O)Oc2c(CN3CCOCC3)cc(Cl)c3cccnc23)c1,inactive
15,CCc1ccc[n+](-c2[nH]c(=O)sc2/C=N/N=C(\[O-])c2cccnc2)c1,"inconclusive: 29.1 µM [activator, single point]"
16,COc1cccc(-c2ccc3c(c2)C2CC3CCN2C(C)=O)c1 (stereo unspecified),inactive
17,Cc1nc(Nc2ccc(Cl)cc2)cc(-c2ccccc2)n1,inactive
18,COc1ccccc1COC(=O)N/C=C/c1ccco1,"inconclusive: 2.06 µM [activator, full curve, poor fit]"
19,CCn1nc(C)cc1C(=O)Sc1ccc(C)cc1,"inconclusive: 29.1 µM [falling, single point]"
20,CCCCOc1cccc(C(=O)Nc2ccc(NC(=O)c3ccco3)cc2)c1,"inconclusive: 23.1 µM [falling, partial curve, poor fit]"

# Arranged by count of non-hydrogen atoms (low to high): 3 of the compounds above.
row,Compound,Potency
14,COc1cc(OC)cc(C(=O)Oc2c(CN3CCOCC3)cc(Cl)c3cccnc23)c1,inactive
11,COc1cccc(/C=N/NC(=O)c2cccc([N+](=O)[O-])c2)c1OS(=O)(=O)c1ccc(C)cc1,"inconclusive: 23.1 µM [falling, partial curve, poor fit]"
7,Cc1ccc2cc(C(c3nnnn3CC3CCCO3)N3CCCC4(CCCCC4)C3)c(=O)[nH]c2c1 (stereo unspecified),"inconclusive: 29.1 µM [falling, single point]"

# From PubChem BioAssay AID504444 (National Center for Advancing Translational Sciences (NCATS), 2011)
